# Not every detail of the peptide structures is certain; ends, links or a residue may be inferred. Square brackets hold non-standard residues; d marks the D form. Peptide text beside a SMILES is read from it.
# Tested on: ovarian tissue mRNA of treated mice
# Assay: RT-PCR of ovarian tissue from treated mice
# Format: in vivo
# Conditions: mouse ovarian tissue
structure (smiles),measurement,value
"CC(C)C[C@@H](NC(=O)[C@@H](C)NC(=O)[C@@H](NC(=O)CNC(=O)[C@H](CO)NC(=O)[C@@H](NC(=O)[C@@H](CCCNC(=N)N)NC(=O)[C@H](Cc1ccccc1)NC(=O)[C@H](CCC(N)=O)NC(=O)[C@H](CC(N)=O)NC(=O)[C@H](Cc1ccc(O)cc1)NC(=O)[C@H](C)NC(=O)[C@H](CC(N)=O)NC(=O)[C@H](CO)NC(=O)CNC(=O)[C@@H](N)C(C)C)C(C)C)C(C)C)C(=O)N[C@@H](CO)C(=O)O [SEQ ID NO: 1, VGSNAYNQFrVSGValS] (H-VGSNAYNQF[dR]VSGV[dA][dL]S-OH)",cellular mRNA expression of the LH receptor,unchanged or decreases slightly
